No constants are given. Whether binding was seen depends on the method and setting. In cells and extracts the contact can be indirect.
Tests used:
SURF4-HA (human) = SURF4-HA (human) (UniProt O15260); assay: GST pull-down from lysate of HEK293T cells expressing SURF4-HA, anti-HA immunoblot
IGF2-HA (human) = IGF2-HA (human) (UniProt P01344); assay: co-immunoprecipitation on anti-HA beads after DSP cross-linking, HEK293T cells, anti-Myc immunoblot

The chains behind the UniProt entries cited, without tags or fusion partners. Where a name states a change or a piece, a line headed by the entry shows the natural chain unless it says otherwise. Residues count along the entry.
UniProt O15260: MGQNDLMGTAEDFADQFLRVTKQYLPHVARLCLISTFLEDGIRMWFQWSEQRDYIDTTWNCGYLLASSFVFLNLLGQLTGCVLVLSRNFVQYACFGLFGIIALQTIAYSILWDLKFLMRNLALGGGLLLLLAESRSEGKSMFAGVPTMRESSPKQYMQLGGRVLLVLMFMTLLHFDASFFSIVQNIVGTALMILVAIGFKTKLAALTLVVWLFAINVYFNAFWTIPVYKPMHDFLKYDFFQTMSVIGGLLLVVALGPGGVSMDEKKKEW
UniProt P01344, residues 25-180: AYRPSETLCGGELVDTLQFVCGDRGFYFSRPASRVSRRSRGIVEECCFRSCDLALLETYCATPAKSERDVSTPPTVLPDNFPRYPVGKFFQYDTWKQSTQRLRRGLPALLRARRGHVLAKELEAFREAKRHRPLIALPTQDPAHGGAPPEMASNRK

binding (SURF4-HA (human)) | binding (IGF2-HA (human)) | Substance
no binding |  | GST (from UniProt P08515 1-218)
 | no binding | SURF4-Myc (from UniProt O15260 2-269) (receptor)
